“And” between values parts separate entries of the source, which are not always exact repeats. Equal entries are not always repeated.
Assays:
[1] = system: tibialis muscles previously injected with bupivacain; assay: Muscular damage by bupivacain: tibialis muscle weight; type: in vivo, rats; conditions: for weight of tibialis muscles: bupivacain (0.5%) damage, formoterol 0.3 mg/kg bw s.c. daily
From the text: Muscular regeneration is a process that implies satellite cells activation, muscle precursors cells that lie adjacent to the skeletal muscle fibers. The muscle was damaged by injecting bupivacain intramuscularly (0.5%). This compound, after muscle damage, stimulates muscular regeneration.
Muscle weights are expressed as mg/100 g of initial body weight. Results are mean ± SEM for the number of animals indicated in parentheses.

[2] = system: different proteolytic systems in gastrocnemius muscles; conditions: mouse, in vivo
[3] = system: mice bearing Lewis lung carcinoma; conditions: mouse, in vivo
[4] = system: different proteolytic systems in gastrocnemius muscles; conditions: rat, in vivo
[5] = system: uncoupling proteins (UCP2 and UCP3); conditions: rat, in vivo
Pax-7 and myogenin = assay: Real time PCR of satellite cell activation markers in tibialis muscle after bupivacain damage; type: in vivo, rats; conditions: formoterol 0.3 mg/kg bw
From the text: PAx-7 and myogenin. Results are mean ± SEM for the number of animals indicated in parentheses.

With `COc1ccc(C[C@H](C)NC[C@@H](O)c2ccc(O)c(NC=O)c2)cc1` (racemic) [formoterol] the “weight of tibialis muscles” value ([1]; 7 days of treatment (C+B+Fd7)) was 297 ± 13 † mg/100 g of initial body weight, the “weight of tibialis muscles” value ([1]; 14 days of treatment (C+B+Fd14)) was 304 ± 10 mg/100 g of initial body weight and the “recovery of the muscle weight” value ([1]; compared with bupivacain alone, result in words) was “higher recovery”. For the same molecule, the “slight increase in cathepsin B mRNA content by tumor” value [2] was “not reverted”, the “adipose tissues weight: brown (interscapular)” value [3] was 249 ± 6 mg/100 g of initial body weight and 153 ± 13 † *** mg/100 g of initial body weight and the “brown adipose tissue mass” value [3] was “increase”. The carcass weight [3] was 87 ± 1 g/100 g of initial body weight and 73 ± 2 g/100 g of initial body weight, the “increase in gastrocnemius weight” value [3] was 19% and the “increase in soleus weight” value [3] was 28%. For the same molecule, the “increase in tibialis weight” value [3] was 13%, the “muscle weight: EDL” value [3] was 42 ± 2 mg/100 g of initial body weight and 40 ± 2 mg/100 g of initial body weight and the “muscle weight: gastrocnemius” value [3] was 669 ± 13 mg/100 g of initial body weight and 548 ± 13 †† *** mg/100 g of initial body weight. The “muscle weight: heart” value [3] was 462 ± 31 mg/100 g of initial body weight and 496 ± 40 mg/100 g of initial body weight, the “muscle weight: soleus” value [3] was 36 ± 1 mg/100 g of initial body weight and 36 ± 2 mg/100 g of initial body weight and the “muscle weight: tibialis” value [3] was 217 ± 4 mg/100 g of initial body weight and 169 ± 3 †† *** mg/100 g of initial body weight. For the same molecule, the “protective effect on cardiac muscle weight” value [3] was 24%, the “protective effect on gastrocnemius weight” value [3] was 11% and the “protective effect on soleus weight” value [3] was 56%. The “protective effect on tibialis weight” value [3] was 11%, the tumor weight [3] was 4.58 ± 0.3 g and the “weight of the solid tumor” value [3] was “did not alter”. For the same molecule, the “white adipose tissue mass” value [3] was “did not alter”, the “lysosomal cathepsin B expression” value [4] was “decreased” and the “UCP2 mRNA” value [5] was 106 ± 7 and 212 ± 31. For the same molecule, the Myogenin gene expression (Pax-7 and myogenin; 7 days of treatment) was 131 ± 49, the Pax-7 gene expression (Pax-7 and myogenin; 7 days of treatment) was 147 ± 10 and the Myogenin gene expression (Pax-7 and myogenin; 14 days of treatment) was 190 ± 58. For the same molecule, the Pax-7 gene expression (Pax-7 and myogenin; 14 days of treatment) was 203 ± 4.
